This is an account of results in the supplement of paper PMC4604168 (melanoma cell lines).

The other results are listed elsewhere or left out. Single values are uncertain, as repeats are few or missing.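 The apoptosis fraction was the count of cleaved-PARP antibody-stained nuclei relative to all DNA-stained nuclei, imaged in 1,536-well plates. Screening doses were set so most cells survived, and baseline and induced cleaved-PARP levels vary greatly across cell lines.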

In this experiment the test system is WM3619. Kind of experiment: cleaved PARP positive nuclei fraction relative to DMSO control; melanoma cells; higher = more apoptosis. As to conditions: library dose: low library concentration; 72 h.
On to `COc1cc([C@@H]2c3cc4c(cc3[C@@H](O[C@@H]3O[C@@H]5CO[C@@H](C)O[C@H]5[C@H](O)[C@H]3O)[C@H]3COC(=O)[C@H]23)OCO4)cc(OC)c1O` [etoposide] + CS(=O)(=O)CCNCc1ccc(-c2ccc3ncnc(Nc4ccc(OCc5cccc(F)c5)c(Cl)c4)c3c2)o1 [lapatinib] (first compound 0.02 µM, partner dose 0.8 µM), for which the “cleaved PARP positive nuclei fraction” value came to 112%.
To `CCCCCCCCCCCCCCCCCCOP(=O)([O-])OC1CC[N+](C)(C)CC1` [Perifosine] + NC1(c2ccc(-c3nc4ccn5c(=O)[nH]nc5c4cc3-c3ccccc3)cc2)CCC1 [MK2206] (first compound 0.4 µM, partner dose 0.4 µM) belongs 98.7%; to `N#CC[C@H](C1CCCC1)n1cc(-c2ncnc3[nH]ccc23)cn1` [ruxolitinib] + COc1ccc(Cl)c(Nc2nc3ccccc3nc2NS(=O)(=O)c2cccc(NC(=O)C(C)(C)N)c2)c1 [XL147] (first compound 1 µM, partner dose 0.8 µM), 93.5%; to `O=C(Nc1cc(C(F)(F)F)cc(C(F)(F)F)c1)c1cc(Cl)ccc1O` + COc1ccc(C2=N[C@@H](c3ccc(Cl)cc3)[C@@H](c3ccc(Cl)cc3)N2C(=O)N2CCNC(=O)C2)c(OC(C)C)c1 [Nutlin-3] (first compound 0.016 µM, partner dose 0.1 µM), 84.5%.
The same measure for `Cc1cc(Nc2cc(N3CCN(C)CC3)nc(Sc3ccc(NC(=O)C4CC4)cc3)n2)n[nH]1` [Tozasertib] + CC[C@]1(O)C[C@H]2CN(CCc3c([nH]c4ccccc34)[C@@](C(=O)OC)(c3cc4c(cc3OC)N(C=O)[C@H]3[C@@](O)(C(=O)OC)[C@H](OC(C)=O)[C@]5(CC)C=CCN6CC[C@]43[C@@H]65)C2)C1 [vincristine] (first compound 0.006 µM, partner dose 0.0001 µM): 153%.
